# PubChem BioAssay AID638 (SRMLSC, 2007)
# In all, about 1,300 compounds went through this assay and about 65 (5%) were called active.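 The calls were made as follows: active = growth inhibition reaching a set limit at one or more tested doses; inactive = the rest.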 Some of the results follow. Measured potencies and affinities stand elsewhere.
# Experiment: wild-type E. coli BW25113 antibacterial activity – OD615, dose response (AID 638)
# Details: at 100 µM (top of the series) unless noted
# Outline: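 Assay system: E. coli BW25113 wild type; buffer or medium: Kanamycin-supplemented LB broth; signal: optical density (absorbance) at 615 nm; controls: chloramphenicol 30 µM control; doses: compound concentration series; times: bacterial exposure to compound 20 h at 37 °C; evaluation: IC50 from 4-parameter logistic, bounds fixed 0–100%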
row,SMILES,growth inhibition
1,O=C(NCc1ccco1)c1cc2sccc2n1Cc1ccccc1,inactive: -6.37%
2,c1ccc(CCc2ccccc2-c2nc(-c3cccnc3)no2)cc1,inactive: 2.9%
3,Cc1c(C(=O)N2CCc3ccccc3C2)sc2nc(-c3ccccc3)cn12,inactive: -29.2%
4,COc1ccc(-c2cnc(N)n2CC2CCCO2)cc1 (configuration not stated),inactive: -2.76%
5,Fc1cccc(-c2cc3nc4c(c(N5CCOCC5)n3n2)CCCC4)c1,inactive: 0.39%
6,CCCOc1ccc(C(=O)N2CCN(c3ccc(NC(=O)CC)cc3Cl)CC2)cc1,inactive: 14.6%
7,O=C(Nc1nnc(-c2ccccc2)o1)c1nc2ccccc2s1,inactive: -11.8%
8,CC(C)n1c(C(=O)OCC(=O)NCc2ccc3c(c2)OCO3)cc2occc21,inactive: -0.66%
9,Cc1cc(NC(=O)Cn2nnc3sc4c(c3c2=O)CCC(C(C)(C)C)C4)no1 (configuration not stated),inactive: 6.34%
10,Cc1nn(-c2ccccc2)c(C)c1C(=O)Nc1nnc(-c2ccco2)o1,inactive: 9.7%
11,CCCc1nc2ccccc2c(=O)n1NC(=O)c1c(O)c2ccccc2[nH]c1=O,inactive: -2.14%
12,C=CCc1c(C)nc(SCc2nc3ccccc3c(=O)[nH]2)[nH]c1=O,inactive: -15.1%
13,O=S(=O)(c1ccccc1)N1CCN(Cc2ccccc2C(F)(F)F)CC1,inactive: 6.92%
14,Cc1ccc(C(C)C)c(Oc2nnnn2-c2ccccc2)c1,inactive: -0.52%
15,C=C(C)COc1ccc(-c2ncncc2Oc2ccc(OC)cc2)c(O)c1,inactive: 11.3%
16,COC(=O)c1ccc(C2c3c(n[nH]c3C)C(=O)N2c2ccc(C)cc2)cc1 (configuration not stated),inactive: 11.1%
17,CCCCCn1c(-c2ccco2)nc2nc3ccccc3nc21,inactive: 11.6%
18,O=C(Nc1sc2c(c1C(=O)O)CCC2)c1cccs1,inactive: -9.69%
19,Cc1ccc2c(c1)c(C)c(C)n2CC(O)Cn1nc(C)c(Br)c1C (configuration not stated),inactive: -3.25%
20,CCOC(=O)c1cc2oc(C)cc2n1CC(=O)OC1CCCCC1,inactive: 9.56%
21,Oc1ccc(Br)cc1-c1nc2cnccn2c1NC1CCCC1,inactive: 16.3%
22,c1ccc2c(c1)oc1c(N3CCN(Cc4ccc5c(c4)OCO5)CC3)ncnc12,inactive: -2.91%
23,CCOC(=O)CCSc1nc2c(c(C(F)(F)F)c1C#N)CCC2,inactive: 4.77%

row,SMILES,growth inhibition
1,CCOC(=O)N1CCN(c2nc(-c3ccc(F)cc3)cs2)CC1,inactive: 6.6%
2,CCOC(=O)c1cnc(-n2cc(C)cn2)nc1Nc1ccccc1OCC,inactive: 4.31%
3,C=C(C)COc1ccc(-c2n[nH]c(C)c2-c2ccccc2)c(O)c1,active: 20.5%
4,COc1ccc(-c2noc(C)c2-c2ccc3ccccc3n2)c(O)c1,inactive: 0.79%
5,O=C(Nc1nc(-c2ccccc2)cs1)c1cccs1,inactive: 1.49%
6,COC(=O)c1[nH]c2ccccc2c1NC(=O)CN1CCN(c2cccc(OC)c2)C(C)C1 (configuration not stated),inactive: -2.45%
7,Cc1cc2c(cc(C(=O)OCC(=O)NCc3cccs3)n2C(C)C)o1,inactive: 3.77%
8,CCOC(=O)c1ccc(NC(=O)CSc2nc(SC)ns2)cc1,inactive: 18.4%
9,CC(C)c1ccc(OCc2nc(-c3ccccn3)no2)c(Br)c1,inactive: 8.32%
10,COc1ccc(NC(=O)N2CCCC(c3nc(-c4ccc(C(C)C)cc4)no3)C2)cc1 (configuration not stated),inactive: -13.1%
11,O=S(=O)(Nc1nc2ccccc2nc1N1CCN(c2ccccn2)CC1)c1ccc(Cl)cc1,inactive: -0.89%
12,COc1cc(C2C(C(=O)c3ccc(C)o3)=C(O)C(=O)N2c2cc(C)on2)cc(Br)c1O (configuration not stated),inactive: -1.59%
13,CN(C)c1nc(SCCOC(=O)Nc2ccccc2)nc(N(C)C)n1,inactive: -4.74%
14,CCCc1ccc(Oc2cn[nH]c2-c2ccc(O)cc2O)cc1,inactive: 8.26%
15,CC(=O)Nc1cccc(NC(=O)c2oc3ccccc3c2C)c1,inactive: 3.29%
16,c1ccc(Cn2nnc3c(N4CCN(Cc5ccc6c(c5)OCO6)CC4)ncnc32)cc1,inactive: -8.7%
17,O=C(Nc1ccc(S(=O)(=O)N2CCCc3ccccc32)cc1)C1CCCO1 (configuration not stated),inactive: -2.99%
18,COc1ccc2nc(N3CCC(C)CC3)c(C#N)cc2c1,inactive: 9.35%
19,COc1ccccc1N1CCN(C(c2ccc(Cl)cc2)c2nnnn2C(C)(C)C)CC1 (configuration not stated),inactive: -6.6%
20,Clc1cccc(-c2nc3nc4ccccc4nc3n2Cc2ccco2)c1,inactive: -12.9%
21,COc1ccc(C(C(O)C(=O)c2c[nH]c3ccccc23)N2CCN(c3ccc(OC)cc3)CC2)cc1 (configuration not stated),inactive: 4.53%
22,CC(C)N(Cc1nc(-c2ccc(Cl)cc2)no1)C(=O)c1cccs1,inactive: 3.57%
23,Nc1nc(CN2CCN(c3cccc(Cl)c3)CC2)nc(N2CCCc3ccccc32)n1,inactive: 4.24%

# Given with tabs: part of the list above
row	SMILES	growth inhibition
17	CCCCCn1c(-c2ccco2)nc2nc3ccccc3nc21	inactive: 11.6%
18	O=C(Nc1sc2c(c1C(=O)O)CCC2)c1cccs1	inactive: -9.69%
19	Cc1ccc2c(c1)c(C)c(C)n2CC(O)Cn1nc(C)c(Br)c1C (configuration not stated)	inactive: -3.25%
20	CCOC(=O)c1cc2oc(C)cc2n1CC(=O)OC1CCCCC1	inactive: 9.56%
21	Oc1ccc(Br)cc1-c1nc2cnccn2c1NC1CCCC1	inactive: 16.3%

# 3 of these compounds in another layout.
row	SMILES	growth inhibition
15	C=C(C)COc1ccc(-c2ncncc2Oc2ccc(OC)cc2)c(O)c1	inactive: 11.3%
16	COC(=O)c1ccc(C2c3c(n[nH]c3C)C(=O)N2c2ccc(C)cc2)cc1 (configuration not stated)	inactive: 11.1%
17	CCCCCn1c(-c2ccco2)nc2nc3ccccc3nc21	inactive: 11.6%

# (further entries)

row,SMILES,growth inhibition
1,CCOC(=O)Cc1c(C)nc2c(-c3cccc(Br)c3)c[nH]n2c1=O,inactive: 7.94%
2,CCOC(=O)c1sc2c(c1C)C(c1cccs1)C1=C(CCCC1=O)N2 (configuration not stated),inactive: 7.91%
3,Cc1cc(Cl)ccc1OCC(=O)Nc1ccccc1N1CCOCC1,inactive: 2.58%
4,COc1cccc(-c2cc(C(=O)N3CCc4ccccc4C3)no2)c1,inactive: -9.48%
5,CC1=C(C(=O)OC2CCCCCCC2)C(c2cccc(O)c2)NC(=O)N1 (configuration not stated),inactive: 3.95%
6,COc1ccc(OC)c(C(=O)COC(=O)c2cc(C)oc2C)c1,inactive: -6.45%
7,CCC(C(=O)N1CCN(c2cccc(Cl)c2)CC1)c1ccccc1 (configuration not stated),inactive: 10.5%
8,Cc1ccc(NC(=O)c2ccccc2O)cc1,inactive: 4.55% [at 50 µM]
9,COc1ccc(NS(=O)(=O)c2cc(C)ccc2NC(=O)c2cc(C)oc2C)cc1,inactive: 11.8%
10,COc1ccccc1-c1nnc(NC(=O)c2ccc(S(=O)(=O)N(C)C)cc2)o1,inactive: 1.56%
11,O=C(NCCc1ccccc1)c1nc2c(nnn2Cc2ccccc2Cl)c(=O)[nH]1,inactive: -1.17%
12,CCC(C)(C)n1nnnc1C(c1cc2ccc(C)cc2[nH]c1=O)N(Cc1cccnc1)Cc1ccco1 (configuration not stated),inactive: -19.6%
13,N=c1n(CCN2CCOCC2)c2ccccc2n1CC(=O)c1ccc(Cl)c(Cl)c1,inactive: -3.82%
14,COC(=O)c1cc(CSc2nc3ccc(C)cc3[nH]2)oc1C,inactive: 1.2%
15,O=C(NCc1ccco1)C(c1cccs1)N(C(=O)C1COc2ccccc2O1)c1cccc(O)c1 (configuration not stated),inactive: 1.03%
16,N#Cc1nc(-c2ccc(OCc3ccccc3)cc2)oc1NCCCN1CCOCC1,inactive: -5.85%
17,CC(C)c1nc(N2CCN(C(=O)c3ccco3)CC2)c2c3c(sc2n1)CCCC3,inactive: 8.8%
18,O=C(CC(=O)c1cc(Cl)ccc1O)c1ccccc1,inactive: 19.9%
19,C=CCSc1nc2c(c(=N)n1CC=C)C1CCCC1S2 (configuration not stated),inactive: 14.5%
20,O=C(CSc1nc2nc(-c3cccs3)cc(C(F)(F)F)c2c(=O)[nH]1)NCc1ccco1,inactive: 2.45%
21,COc1ccccc1C1SCCN1S(=O)(=O)c1cccc(C(F)(F)F)c1 (configuration not stated),inactive: -11.3%
22,O=C(Nc1ccc(Cl)cc1)N1CCC(c2nc(-c3ccc(F)cc3)no2)CC1,inactive: 7.49%
23,CC1(C)C(=O)OC(c2cc(Br)ccc2O)C(C)(C)C1=O (configuration not stated),inactive: 6.03%

row,SMILES,growth inhibition
1,CCOC(=O)N1CCN(S(=O)(=O)c2ccc(OCC)c3ccccc23)CC1,inactive: 5.33%
2,Clc1ccc(Nc2nc(-c3cccs3)cs2)nc1,inactive: 8.56%
3,Cc1nn(Cc2ccc(C(=O)N3c4ccc(F)cc4CCC3C)o2)c(C)c1Br (configuration not stated),inactive: 6.16%
4,CC(C)Cc1cc(C(=O)Nc2sc3c(c2C#N)CCCC3)no1,inactive: 0.67%
5,Cn1c(CSc2nc3ccccc3s2)nc2ccccc21,inactive: 13.6%
6,Cc1cc(C)c(O)c(-c2cc(C(=O)Nc3ccc(S(=O)(=O)N4CCOCC4)cc3)[nH]n2)c1,inactive: 1.63%
7,COC(=O)c1ccccc1NC(=O)c1ccc2c(c1)OCCO2,inactive: 8.18%
8,CN(C)Cc1nc2c(c(=O)[nH]1)C1(CCCCC1)Cc1ccccc1-2,inactive: -2.46%
9,CC1CCN(C(=O)c2ccc(COc3ccccc3Cl)o2)CC1,inactive: 11.2%
10,CNc1ccc(C(O)(C(F)(F)F)C(F)(F)F)cc1C(O)(C(F)(F)F)C(F)(F)F,inactive: 9.61%
11,Cn1c(=O)n(Cc2ccccc2)c(=O)c2c1nc1n2CCCN1Cc1ccccc1,inactive: -13.5%
12,O=C(CN1CCN(S(=O)(=O)c2ccc(F)cc2)CC1)Nc1ccc(Cl)c(C(F)(F)F)c1,inactive: 1.58%
13,CCOC(=O)c1cnn(-c2nc3sc4c(c3c(=O)[nH]2)CCCC4)c1N,inactive: -1.22%
14,CCc1ccc(S(=O)(=O)NCCc2csc(-c3ccccc3)n2)s1,inactive: -7.65%
15,O=C(c1ccc(Cl)c(Cl)c1)N(Cc1ccco1)c1ccc(O)cc1,inactive: 15.9%
16,CCOc1cc(C)c(Cl)cc1S(=O)(=O)n1nnc2ccccc21,inactive: -9.49%
17,O=C(CCNc1cc(Cl)cc(Cl)c1)c1ccco1,inactive: 7.38%
18,COc1ccc(-c2noc(CN3CCC(Cc4ccccc4)CC3)n2)cc1,inactive: 14.1%
19,O=C(O)C1CC=CCC1C(=O)Nc1ccc(S(=O)(=O)N2CCCc3ccccc32)cc1 (configuration not stated),inactive: 16.2%
20,Cc1ccc2[nH]c(=O)c(C(c3nnnn3C3CCCC3)N(Cc3cccnc3)Cc3ccco3)cc2c1 (configuration not stated),inactive: -10.9%
21,CCc1nc(N2CCCCC2)c2oc3ccccc3c2n1,inactive: -1.03%
22,Cc1cc(C)nc(-n2nc(C)cc2Nc2ccccc2)n1,inactive: 7.27%
23,Cc1cc(C)c(C#N)c(SCC(=O)OC2CCCCC2)n1,inactive: 8.15%
